Test results reported in paper PMC13260904.
These are yes or no findings as the source states them, for the method shown. In cells and extracts the contact can be indirect. Some results given as binding are weak or reduced against the parent protein; the word gives no strength. Sequences can lack the tags named with a protein.

The chains behind the UniProt entries cited, without tags or fusion partners.
UniProt Q13541: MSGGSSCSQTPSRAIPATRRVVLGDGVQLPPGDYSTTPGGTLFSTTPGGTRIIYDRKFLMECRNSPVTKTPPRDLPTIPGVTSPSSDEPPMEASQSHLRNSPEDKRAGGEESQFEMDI

Molecular target: Flag-tagged 4E-BP1 (UniProt Q13541)
Test: co-IP; HEK293T co-transfected with HA-SIRT2 and Flag-4E-BP1 or Flag empty vector; lysis in 1% NP40 buffer pH 7.4; Flag beads at 4 °C overnight; washes in 25 mM Tris pH 8.0, 150 mM NaCl, 0.2% NP40; western blot

- binding: binds
B1: HA-tagged SIRT2 (enzyme, UniProt Q8IXJ6 1-389)
chain: MAEPDPSHPLETQAGKVQEAQDSDSDSEGGAAGGEADMDFLRNLFSQTLSLGSQKERLLDELTLEGVARYMQSERCRRVICLVGAGISTSAGIPDFRSPSTGLYDNLEKYHLPYPEAIFEISYFKKHPEPFFALAKELYPGQFKPTICHYFMRLLKDKGLLLRCYTQNIDTLERIAGLEQEDLVEAHGTFYTSHCVSASCRHEYPLSWMKEKIFSEVTPKCEDCQSLVKPDIVFFGESLPARFFSCMQSDFLKVDLLLVMGTSLQVQPFASLISKAPLSTPRLLINKEKAGQSDPFLGMIMGLGGGMDFDSKKAYRDVAWLGECDQGCLALAELLGWKKELEDLVRREHASIDAQSGAGVPNPSTSASPKKSPPPAKDEARTTEREKPQ
